Data on three substances can be found in PMC7613278.

By UniProt entry, the sequences of proteins in these tests, tags left out. Where a name states a change or a piece, a line headed by the entry shows the natural chain unless it says otherwise.
UniProt Q8WUY9: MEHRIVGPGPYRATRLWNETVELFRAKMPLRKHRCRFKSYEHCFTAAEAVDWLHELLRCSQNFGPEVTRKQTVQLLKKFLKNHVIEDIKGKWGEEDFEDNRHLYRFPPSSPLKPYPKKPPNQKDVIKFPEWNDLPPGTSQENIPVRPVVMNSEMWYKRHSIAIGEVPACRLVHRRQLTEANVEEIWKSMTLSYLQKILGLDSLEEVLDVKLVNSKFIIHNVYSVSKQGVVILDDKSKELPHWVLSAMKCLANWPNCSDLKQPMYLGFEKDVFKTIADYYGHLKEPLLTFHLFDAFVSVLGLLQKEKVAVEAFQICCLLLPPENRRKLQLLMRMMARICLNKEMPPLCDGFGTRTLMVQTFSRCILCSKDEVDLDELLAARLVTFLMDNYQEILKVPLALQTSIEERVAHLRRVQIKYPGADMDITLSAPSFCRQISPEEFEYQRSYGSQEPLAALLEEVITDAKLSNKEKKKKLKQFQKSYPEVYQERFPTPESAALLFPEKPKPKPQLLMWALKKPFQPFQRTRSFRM
UniProt E9QAN8: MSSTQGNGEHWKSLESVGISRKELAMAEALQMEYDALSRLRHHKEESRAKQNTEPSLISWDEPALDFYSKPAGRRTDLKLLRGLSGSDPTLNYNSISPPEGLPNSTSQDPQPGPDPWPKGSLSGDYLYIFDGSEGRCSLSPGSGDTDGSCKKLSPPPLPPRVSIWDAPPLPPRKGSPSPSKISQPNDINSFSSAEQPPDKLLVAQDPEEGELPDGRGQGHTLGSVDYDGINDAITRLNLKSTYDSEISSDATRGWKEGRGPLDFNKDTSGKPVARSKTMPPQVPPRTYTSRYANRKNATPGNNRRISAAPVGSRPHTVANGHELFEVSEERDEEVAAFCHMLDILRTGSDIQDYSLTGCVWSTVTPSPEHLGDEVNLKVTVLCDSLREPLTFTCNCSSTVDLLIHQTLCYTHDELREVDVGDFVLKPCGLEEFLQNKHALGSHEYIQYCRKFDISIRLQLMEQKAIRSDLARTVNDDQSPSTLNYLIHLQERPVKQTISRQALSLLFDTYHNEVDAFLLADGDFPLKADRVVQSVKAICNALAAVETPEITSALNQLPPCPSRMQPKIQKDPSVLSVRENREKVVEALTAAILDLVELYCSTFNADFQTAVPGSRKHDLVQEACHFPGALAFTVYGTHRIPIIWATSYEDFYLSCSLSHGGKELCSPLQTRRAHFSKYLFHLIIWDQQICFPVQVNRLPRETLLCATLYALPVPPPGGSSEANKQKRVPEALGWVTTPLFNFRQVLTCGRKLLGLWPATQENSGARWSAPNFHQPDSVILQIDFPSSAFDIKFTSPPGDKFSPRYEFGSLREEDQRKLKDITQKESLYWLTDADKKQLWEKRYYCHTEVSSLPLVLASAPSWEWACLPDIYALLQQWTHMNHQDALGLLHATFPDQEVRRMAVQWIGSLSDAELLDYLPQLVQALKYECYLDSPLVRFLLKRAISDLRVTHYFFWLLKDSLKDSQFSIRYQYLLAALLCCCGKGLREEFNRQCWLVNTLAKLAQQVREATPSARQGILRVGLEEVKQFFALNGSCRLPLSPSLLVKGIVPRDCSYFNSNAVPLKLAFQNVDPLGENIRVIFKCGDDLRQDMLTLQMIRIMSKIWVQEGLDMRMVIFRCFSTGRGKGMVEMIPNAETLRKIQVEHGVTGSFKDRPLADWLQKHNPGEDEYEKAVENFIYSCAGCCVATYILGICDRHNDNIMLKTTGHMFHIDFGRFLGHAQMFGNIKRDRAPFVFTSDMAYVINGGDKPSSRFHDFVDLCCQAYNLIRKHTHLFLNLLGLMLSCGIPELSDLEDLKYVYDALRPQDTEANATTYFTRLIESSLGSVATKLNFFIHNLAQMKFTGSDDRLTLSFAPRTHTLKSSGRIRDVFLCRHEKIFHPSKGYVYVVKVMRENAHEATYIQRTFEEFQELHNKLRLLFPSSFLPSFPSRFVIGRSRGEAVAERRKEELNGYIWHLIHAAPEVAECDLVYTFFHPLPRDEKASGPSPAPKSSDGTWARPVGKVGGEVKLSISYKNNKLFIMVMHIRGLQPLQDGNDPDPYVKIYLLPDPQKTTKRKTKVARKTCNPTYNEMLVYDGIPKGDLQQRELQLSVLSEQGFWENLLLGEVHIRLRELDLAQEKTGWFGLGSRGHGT
UniProt O00750: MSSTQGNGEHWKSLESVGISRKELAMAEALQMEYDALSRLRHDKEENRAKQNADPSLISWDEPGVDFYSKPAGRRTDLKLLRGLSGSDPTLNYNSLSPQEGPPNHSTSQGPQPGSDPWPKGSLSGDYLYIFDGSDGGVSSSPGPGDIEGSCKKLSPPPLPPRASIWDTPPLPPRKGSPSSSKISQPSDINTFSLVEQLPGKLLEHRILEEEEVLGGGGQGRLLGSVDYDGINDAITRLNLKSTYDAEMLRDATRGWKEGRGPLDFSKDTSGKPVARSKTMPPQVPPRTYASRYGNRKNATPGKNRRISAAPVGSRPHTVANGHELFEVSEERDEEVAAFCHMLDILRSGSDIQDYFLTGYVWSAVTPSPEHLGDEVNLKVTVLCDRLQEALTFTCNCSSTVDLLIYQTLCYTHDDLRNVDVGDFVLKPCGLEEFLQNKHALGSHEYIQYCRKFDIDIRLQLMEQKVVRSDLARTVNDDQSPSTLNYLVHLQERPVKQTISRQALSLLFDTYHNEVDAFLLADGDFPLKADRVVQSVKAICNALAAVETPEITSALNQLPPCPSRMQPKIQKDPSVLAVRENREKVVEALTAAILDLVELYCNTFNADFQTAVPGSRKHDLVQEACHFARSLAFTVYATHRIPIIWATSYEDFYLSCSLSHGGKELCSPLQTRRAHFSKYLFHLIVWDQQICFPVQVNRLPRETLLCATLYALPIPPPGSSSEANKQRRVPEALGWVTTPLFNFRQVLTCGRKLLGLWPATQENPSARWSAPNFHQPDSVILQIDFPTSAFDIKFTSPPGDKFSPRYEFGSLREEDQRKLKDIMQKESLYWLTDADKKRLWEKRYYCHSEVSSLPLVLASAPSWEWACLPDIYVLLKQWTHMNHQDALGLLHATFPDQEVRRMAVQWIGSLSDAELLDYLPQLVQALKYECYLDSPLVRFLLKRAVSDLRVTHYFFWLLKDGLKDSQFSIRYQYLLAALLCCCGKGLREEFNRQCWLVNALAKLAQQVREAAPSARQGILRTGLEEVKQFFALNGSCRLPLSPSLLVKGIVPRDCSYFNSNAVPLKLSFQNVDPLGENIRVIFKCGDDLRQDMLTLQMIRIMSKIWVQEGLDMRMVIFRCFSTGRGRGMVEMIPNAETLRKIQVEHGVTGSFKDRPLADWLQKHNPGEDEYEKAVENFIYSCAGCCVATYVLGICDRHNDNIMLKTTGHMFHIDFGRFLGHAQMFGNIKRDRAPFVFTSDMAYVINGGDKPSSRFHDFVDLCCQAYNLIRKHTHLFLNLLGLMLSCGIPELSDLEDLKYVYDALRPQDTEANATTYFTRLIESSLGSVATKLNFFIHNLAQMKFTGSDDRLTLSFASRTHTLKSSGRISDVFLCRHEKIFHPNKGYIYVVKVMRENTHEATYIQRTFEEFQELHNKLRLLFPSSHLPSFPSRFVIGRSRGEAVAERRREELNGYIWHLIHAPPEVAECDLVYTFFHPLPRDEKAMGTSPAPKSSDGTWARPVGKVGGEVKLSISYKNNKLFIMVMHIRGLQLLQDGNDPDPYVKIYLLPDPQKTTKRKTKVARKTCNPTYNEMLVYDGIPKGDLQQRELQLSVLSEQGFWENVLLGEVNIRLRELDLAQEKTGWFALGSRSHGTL

Results are given in words; binding and its absence hold for the method and conditions named. Binding seen in cells or lysates may run through a third protein. Some binding calls cover weakened binding; strength is not graded here.

The target in one assay is eGFP-DEPDC1B (human) (UniProt Q8WUY9). The experiment in a line: co-IP; HEK293T cells co-expressing eGFP-DEPDC1B and 6×myc-PI3K-C2β, 48 h after transfection; lysis buffer 20 mM HEPES pH 7.4, 100 mM KCl, 2 mM MgCl2, 1% Triton X-100; anti-c-Myc (control anti-Flag) or anti-DEPDC1B (control anti-mouse IgG) on magnetic protein A or G beads, 4°C overnight.
Assay [1] has as its target 6×myc-mousePI3K-C2β (mouse) (UniProt E9QAN8). The description is as above.
The target in assay [2] is endogenous eGFP-PI3K-C2β (genome-engineered HEK293T cells) (human (endogenous in HEK293T)) (UniProt O00750). The experiment in a line: co-IP; genome-engineered HEK293T cells with endogenous eGFP-PI3K-C2β; IP buffer 20 mM HEPES pH 7.4, 150 mM NaCl, 0.05% saponin; control or GFP-trap magnetic beads, 4 h at 4°C; cells untreated or treated for 2 h with vehicle or PKN inhibitors (1 μM PKC412 + 2 μM Cdk1/2 inhibitor III).

“6×myc-mousePI3K-C2β (from UniProt E9QAN8 1-1632) (enzyme)”: the binding result with eGFP-DEPDC1B (human) is “binds”. Consider “eGFP-DEPDC1B (from UniProt Q8WUY9 1-529)”, for which the binding result in assay [1] was “binds”. “endogenous DEPDC1B (from UniProt Q8WUY9 1-529)”: the binding entry in assay [2] is “binds”.
